Experimental findings from patent publication US20020187938A1 (priority 2000, published 2002) are described below.

HELM strings list residues between dots; [ac] is acetyl, [am] amide, other brackets name non-standard units. Where no end group is shown, it is not given here. The star is where a group is joined. Octanoyl = CCCCCCCC(=O)*

The nature of this data set: peptide synthesis. The following applies: whole synthesis, HPLC.
As to GSS(Octanoyl)FLSPEAKLQPR, the “purity (crude or final not stated)” value was 95.0%.

“H-GSS(Octanoyl)F-OH (N-terminus and C-terminus assumed; SMILES CCCCCCCC(=O)OC[C@H](NC(=O)[C@H](CO)NC(=O)CN)C(=O)N[C@@H](Cc1ccccc1)C(=O)O)”: the “purity (crude or final not stated)” value amounted to 95.6%.

Take “PEPTIDE1{G.S.[Ser(Octanoyl)].F.L.S.P.E}$$$$V2.0”: the “purity (crude or final not stated)” value was found to be 97.8%.
